This assay addresses wild-type eGFP-YY2 (human) (UniProt O15391). As to the kind of experiment: co-IP; HeLa cells stably expressing eGFP-YY2, transfected with Smurf1-FLAG for 24 hr; lysed in 25 mM Tris-HCl pH 7.4, 150 mM NaCl, 1% NP-40, 1 mM EDTA, 5% glycerol; anti-GFP antibody-magnetic beads, 4 °C, 4 hr; four washes; immunoblot; IgG control IP. On the technique in general: Immunoblotting shows a protein as a band on a membrane.

Chains of the proteins cited; added tags and fusions are not shown.
UniProt O15391: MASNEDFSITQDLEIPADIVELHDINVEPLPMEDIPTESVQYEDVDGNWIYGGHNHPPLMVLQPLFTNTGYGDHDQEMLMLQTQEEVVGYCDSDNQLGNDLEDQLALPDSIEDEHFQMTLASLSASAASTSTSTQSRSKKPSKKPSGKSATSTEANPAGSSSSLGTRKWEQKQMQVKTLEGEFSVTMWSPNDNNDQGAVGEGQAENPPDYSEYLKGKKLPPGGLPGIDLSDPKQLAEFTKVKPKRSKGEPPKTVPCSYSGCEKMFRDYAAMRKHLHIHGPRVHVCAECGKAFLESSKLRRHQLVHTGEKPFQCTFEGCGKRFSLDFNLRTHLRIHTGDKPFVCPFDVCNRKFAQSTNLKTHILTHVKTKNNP
UniProt Q9HCE7: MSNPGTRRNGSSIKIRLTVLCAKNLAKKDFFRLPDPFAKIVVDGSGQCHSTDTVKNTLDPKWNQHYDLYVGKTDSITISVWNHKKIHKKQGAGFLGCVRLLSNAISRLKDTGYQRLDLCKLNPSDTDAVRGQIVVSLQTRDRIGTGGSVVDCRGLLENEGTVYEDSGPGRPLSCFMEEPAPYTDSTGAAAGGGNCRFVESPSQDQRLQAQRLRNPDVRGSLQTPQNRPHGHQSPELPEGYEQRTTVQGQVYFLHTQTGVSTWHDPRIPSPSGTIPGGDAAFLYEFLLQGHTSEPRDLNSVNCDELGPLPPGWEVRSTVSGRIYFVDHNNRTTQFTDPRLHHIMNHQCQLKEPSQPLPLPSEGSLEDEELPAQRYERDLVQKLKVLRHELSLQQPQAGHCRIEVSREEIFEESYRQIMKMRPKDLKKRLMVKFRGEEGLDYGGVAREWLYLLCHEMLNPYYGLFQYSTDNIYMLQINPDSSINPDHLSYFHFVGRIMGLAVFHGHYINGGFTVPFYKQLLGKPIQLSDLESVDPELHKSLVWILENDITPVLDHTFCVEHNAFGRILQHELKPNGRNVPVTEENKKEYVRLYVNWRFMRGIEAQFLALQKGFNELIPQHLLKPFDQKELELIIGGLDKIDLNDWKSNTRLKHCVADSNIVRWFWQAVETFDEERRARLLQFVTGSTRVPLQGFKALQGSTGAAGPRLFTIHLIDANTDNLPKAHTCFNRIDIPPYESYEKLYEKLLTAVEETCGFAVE

Consider one substance from PMC9984496.

Results are given in words; binding and its absence hold for the method and conditions named. Binding seen in cells or lysates may run through a third protein. Some results given as binding are weak or reduced against the parent protein; the word gives no strength.

In the case of “Smurf1-FLAG (from UniProt Q9HCE7 1-757) (enzyme)”, the binding entry is on record as “binds”.
